Drawing on patent publication US5646000A, “Compounds and methods for identifying activated platelets” (Merck & Co., Inc., priority 1994, dated 1997), this text covers Ki and IC50 for one molecule.

Amino acid sequences for entries named in this document (tags omitted). Residues count along the entry.
UniProt P05106, 27-788 limits assumed: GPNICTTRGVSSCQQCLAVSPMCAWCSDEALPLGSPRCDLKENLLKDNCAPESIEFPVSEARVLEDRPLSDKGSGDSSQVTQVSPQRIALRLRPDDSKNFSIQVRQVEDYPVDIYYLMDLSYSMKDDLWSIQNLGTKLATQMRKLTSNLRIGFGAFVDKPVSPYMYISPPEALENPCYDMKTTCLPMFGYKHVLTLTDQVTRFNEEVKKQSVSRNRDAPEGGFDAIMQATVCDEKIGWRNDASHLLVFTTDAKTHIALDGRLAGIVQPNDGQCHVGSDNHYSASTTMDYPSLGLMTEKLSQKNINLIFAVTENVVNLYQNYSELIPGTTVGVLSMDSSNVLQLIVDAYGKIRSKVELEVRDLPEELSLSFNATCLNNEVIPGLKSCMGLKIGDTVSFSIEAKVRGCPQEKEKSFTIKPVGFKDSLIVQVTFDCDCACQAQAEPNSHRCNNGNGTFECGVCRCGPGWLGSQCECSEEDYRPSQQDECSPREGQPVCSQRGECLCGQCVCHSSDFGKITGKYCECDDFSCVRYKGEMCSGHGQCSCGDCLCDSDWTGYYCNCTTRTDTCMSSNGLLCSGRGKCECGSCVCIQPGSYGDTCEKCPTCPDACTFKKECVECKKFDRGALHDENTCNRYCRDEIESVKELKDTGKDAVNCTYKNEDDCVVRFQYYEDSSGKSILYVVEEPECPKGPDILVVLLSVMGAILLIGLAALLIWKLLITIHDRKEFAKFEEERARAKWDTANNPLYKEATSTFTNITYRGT
UniProt P08514, 32-887 limits assumed: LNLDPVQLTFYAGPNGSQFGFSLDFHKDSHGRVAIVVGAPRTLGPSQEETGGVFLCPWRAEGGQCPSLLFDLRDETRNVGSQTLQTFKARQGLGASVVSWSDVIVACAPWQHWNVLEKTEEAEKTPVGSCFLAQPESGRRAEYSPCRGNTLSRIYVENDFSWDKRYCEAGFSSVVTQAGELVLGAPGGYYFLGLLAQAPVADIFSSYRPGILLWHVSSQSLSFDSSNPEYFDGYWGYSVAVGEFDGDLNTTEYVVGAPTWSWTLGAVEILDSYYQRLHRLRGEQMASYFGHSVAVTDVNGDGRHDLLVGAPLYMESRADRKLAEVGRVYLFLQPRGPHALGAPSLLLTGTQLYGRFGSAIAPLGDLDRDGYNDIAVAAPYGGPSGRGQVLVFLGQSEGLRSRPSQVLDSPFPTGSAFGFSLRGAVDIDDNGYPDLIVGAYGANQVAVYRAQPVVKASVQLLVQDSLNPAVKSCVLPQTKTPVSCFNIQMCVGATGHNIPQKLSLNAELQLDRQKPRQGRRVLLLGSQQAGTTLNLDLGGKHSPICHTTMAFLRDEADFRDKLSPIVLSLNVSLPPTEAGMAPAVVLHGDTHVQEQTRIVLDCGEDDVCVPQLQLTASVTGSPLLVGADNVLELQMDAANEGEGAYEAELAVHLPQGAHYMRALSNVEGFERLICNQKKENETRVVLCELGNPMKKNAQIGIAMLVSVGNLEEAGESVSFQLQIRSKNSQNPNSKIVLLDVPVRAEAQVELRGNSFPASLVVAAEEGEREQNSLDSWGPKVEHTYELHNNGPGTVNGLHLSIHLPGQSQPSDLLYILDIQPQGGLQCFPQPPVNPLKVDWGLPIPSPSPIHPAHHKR
UniProt P08514, 891-1039 partner limits assumed: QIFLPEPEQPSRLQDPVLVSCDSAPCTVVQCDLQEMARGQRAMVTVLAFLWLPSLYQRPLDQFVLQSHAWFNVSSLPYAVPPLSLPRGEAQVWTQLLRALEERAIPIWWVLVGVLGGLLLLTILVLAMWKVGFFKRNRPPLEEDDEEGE

The match of structure and compound is tentative.

The target in assay [1] is inactive form of GP IIb/IIIa (unactivated GP IIb/IIIa) (Homo sapiens, UniProt P05106+P08514). Description: Fluorescence displacement of probe 2-8 from inactive (unactivated) form of GP IIb/IIIa. The settings on record: read-out: Ki (nM) (unactivated GP IIb/IIIa); unactivated GP IIb/IIIa (Table 1).
The subject of another assay is ADP-stimulated platelets. Kind of assay: Fibrinogen Receptor Antagonist Assay: ADP-stimulated platelet aggregation (gel-filtered human platelets). The settings on record: read-out: IC50 (nM) (aggregation); gel-filtered human platelets 2×10^8 per ml, fibrinogen 100 μg/ml, Ca^2+ 1 mM, 10 μM ADP, 37° C.

With `CC(=O)N[C@H]1CSSC[C@@H](C(=O)O)NC(=O)[C@H](CC(=O)O)NC(=O)CNC(=O)[C@H](Cc2ccc(CN)cc2)NC(=O)[C@H]2N(CSC2(C)C)C(=O)[C@H](CC(N)=O)NC1=O`, the Ki in assay [1] was found to be 3100 nM. In addition, the IC50 with ADP-stimulated platelets is 23 nM.
